Results: the supplement of paper PMC8728848
The other results are listed elsewhere or left out.

Experiments:
Assay in all cases: glycan array binding signal (z-score within array); higher = stronger binding
Settings in all cases: glycan notation: IUPAC condensed, linker removed
[1] = biological target: Neu5Ac(a2-6)Gal(b1-4)GlcNAc(b1-2)Man(a1-3)[Man(a1-6)]Man(b1-4)GlcNAc(b1-4)GlcNAc
Outline: (§1)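 Arrays were curated from the Consortium for Functional Glycomics database, 3228 in total, and kept only where the protein sequence was available. Binding is expressed as a within-array Z-score. This score was averaged across arrays of the same protein sequence at different concentrations or buffers and across linkers, and negative values can be read as non-binding.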

[2] = biological target: Neu5Ac(a2-6)Gal(b1-4)GlcNAc(b1-2)Man(a1-3)[Neu5Ac(a2-3)Gal(b1-4)GlcNAc(b1-2)Man(a1-6)]Man(b1-4)GlcNAc(b1-4)GlcNAc
Outline: as §1

[3] = biological target: Neu5Ac(a2-6)Gal(b1-4)GlcNAc(b1-2)Man(a1-3)[Neu5Ac(a2-6)Gal(b1-4)GlcNAc(b1-2)Man(a1-6)]Man(b1-4)GlcNAc(b1-4)GlcNAc
Outline: as §1

[4] = biological target: Neu5Ac(a2-6)Gal(b1-4)GlcNAc(b1-2)Man(a1-3)[Neu5Ac(a2-6)Gal(b1-4)GlcNAc(b1-2)Man(a1-6)]Man(b1-4)GlcNAc(b1-4)[Fuc(a1-6)]GlcNAc
Outline: as §1

[5] = biological target: Neu5Ac(a2-6)Gal(b1-4)GlcNAc(b1-2)Man(a1-6)Man(b1-4)GlcNAc(b1-4)GlcNAc
Outline: as §1

[6] = biological target: Neu5Ac(a2-6)Gal(b1-4)GlcNAc(b1-2)Man(a1-6)[Gal(b1-4)GlcNAc(b1-2)Man(a1-3)]Man(b1-4)GlcNAc(b1-4)GlcNAc
Outline: as §1

[7] = biological target: Neu5Ac(a2-6)Gal(b1-4)GlcNAc(b1-2)Man(a1-6)[GlcNAc(b1-2)Man(a1-3)]Man(b1-4)GlcNAc(b1-4)GlcNAc
Outline: as §1

[8] = biological target: Neu5Ac(a2-6)Gal(b1-4)GlcNAc(b1-2)Man(a1-6)[Man(a1-3)]Man(b1-4)GlcNAc(b1-4)GlcNAc
Outline: as §1

[9] = biological target: Neu5Ac(a2-6)Gal(b1-4)GlcNAc(b1-2)[Neu5Ac(a2-6)Gal(b1-4)GlcNAc(b1-4)]Man(a1-3)[GlcNAc(b1-4)][Neu5Ac(a2-6)Gal(b1-4)GlcNAc(b1-2)[Neu5Ac(a2-6)Gal(b1-4)GlcNAc(b1-6)]Man(a1-6)]Man(b1-4)GlcNAc(b1-4)GlcNAc
Outline: as §1

[10] = biological target: Neu5Ac(a2-6)Gal(b1-4)GlcNAc(b1-2)[Neu5Ac(a2-6)Gal(b1-4)GlcNAc(b1-4)]Man(a1-3)[GlcNAc(b1-4)][Neu5Ac(a2-6)Gal(b1-4)GlcNAc(b1-4)Man(a1-6)]Man(b1-4)GlcNAc(b1-4)GlcNAc
Outline: as §1

[11] = biological target: Neu5Ac(a2-6)Gal(b1-4)GlcNAc(b1-2)[Neu5Ac(a2-6)Gal(b1-4)GlcNAc(b1-6)]Man(a1-6)[Neu5Ac(a2-6)Gal(b1-4)GlcNAc(b1-2)Man(a1-3)][GlcNAc(b1-4)]Man(b1-4)GlcNAc(b1-4)GlcNAc
Outline: as §1

[12] = biological target: Neu5Ac(a2-6)Gal(b1-4)GlcNAc(b1-3)Gal(b1-3)GlcNAc
Outline: as §1

[13] = biological target: Neu5Ac(a2-6)Gal(b1-4)GlcNAc(b1-3)Gal(b1-4)GlcNAc
Outline: as §1

[14] = biological target: Neu5Ac(a2-6)Gal(b1-4)GlcNAc(b1-3)Gal(b1-4)GlcNAc(b1-2)Man(a1-3)[Neu5Ac(a2-6)Gal(b1-4)GlcNAc(b1-3)Gal(b1-4)GlcNAc(b1-2)Man(a1-6)]GalNAc
Outline: as §1

[15] = biological target: Neu5Ac(a2-6)Gal(b1-4)GlcNAc(b1-3)Gal(b1-4)GlcNAc(b1-3)Gal(b1-4)GlcNAc
Outline: as §1

[16] = biological target: Neu5Ac(a2-6)Gal(b1-4)GlcNAc(b1-3)Gal(b1-4)GlcNAc(b1-3)Gal(b1-4)GlcNAc(b1-2)Man(a1-3)[Neu5Ac(a2-6)Gal(b1-4)GlcNAc(b1-3)Gal(b1-4)GlcNAc(b1-3)Gal(b1-4)GlcNAc(b1-2)Man(a1-6)]GalNAc
Outline: as §1

[17] = biological target: Neu5Ac(a2-6)Gal(b1-4)GlcNAc(b1-3)Gal(b1-4)GlcNAc(b1-3)GalNAc
Outline: as §1

[18] = biological target: Neu5Ac(a2-6)Gal(b1-4)GlcNAc(b1-3)Gal(b1-4)GlcNAc(b1-3)[Neu5Ac(a2-6)Gal(b1-4)GlcNAc(b1-3)Gal(b1-4)GlcNAc(b1-6)]GalNAc
Outline: as §1

[19] = biological target: Neu5Ac(a2-6)Gal(b1-4)GlcNAc(b1-3)Gal(b1-4)GlcNAc(b1-6)[Gal(b1-3)]GalNAc
Outline: as §1

[20] = biological target: Neu5Ac(a2-6)Gal(b1-4)GlcNAc(b1-3)Gal(b1-4)[Fuc(a1-3)]GlcNAc(b1-3)Gal(b1-4)[Fuc(a1-3)]GlcNAc
Outline: as §1

[21] = biological target: Neu5Ac(a2-6)Gal(b1-4)GlcNAc(b1-3)GalNAc
Outline: as §1

[22] = biological target: Neu5Ac(a2-6)Gal(b1-4)GlcNAc(b1-3)[Neu5Ac(a2-6)Gal(b1-4)GlcNAc(b1-6)]GalNAc
Outline: as §1

[23] = biological target: Neu5Ac(a2-6)Gal(b1-4)GlcNAc(b1-6)GalNAc
Outline: as §1

[24] = biological target: Neu5Ac(a2-6)Gal(b1-4)GlcNAc(b1-6)[Gal(b1-3)GlcNAc(b1-3)]Gal(b1-4)Glc
Outline: as §1

[25] = biological target: Neu5Ac(a2-6)Gal(b1-4)GlcNAc(b1-6)[Gal(b1-3)]GalNAc
Outline: as §1

[26] = biological target: Neu5Ac(a2-6)Gal(b1-4)GlcNAc6S
Outline: as §1

Neu5Ac(a2-6)GalNAc = biological target: Neu5Ac(a2-6)GalNAc
Outline: as §1

[27] = biological target: Neu5Ac(a2-6)GalNAc(b1-4)GlcNAc
Outline: as §1

[28] = biological target: Neu5Ac(a2-6)GalNAc(b1-4)GlcNAc6S
Outline: as §1

[29] = biological target: Neu5Ac(a2-6)GlcNAc(b1-4)GlcNAc
Outline: as §1

[30] = biological target: Neu5Ac(a2-6)GlcNAc(b1-4)GlcNAc(b1-4)GlcNAc
Outline: as §1

B1: YghJ (Escherichia coli), E3PJ90 (protein)
chain: MNKKFKYKKSLLAAILSATLLAGCDGGGSGSSSDTPPVDSGTGSLPEVKPDPTPNPEPTPEPTPDPEPTPEPIPDPEPTPEPEPEPVPTKTGYLTLGGSQRVTGATCNGESSDGFTFKPGEDVTCVAGNTTIATFNTQSEAARSLRAVEKVSFSLEDAQELAGSDDKKSNAVSLVTSSNSCPANTEQVCLTFSSVIESKRFDSLYKQIDLAPEEFKKLVNEEVENNAATDKAPSTHTSPVVPVTTPGTKPDLNASFVSANAEQFYQYQPTEIILSEGRLVDSQGYGVAGVNYYTNSGRGVTGENGEFSFSWGEAISFGIDTFELGSVRGNKSTIALTELGDEVRGANIDQLIHRYSTTGQNNTRVVPDDVRKVFAEYPNVINEIINLSLSNGATLGEGEQVVNLPNEFIEQFNTGQAKEIDTAICAKTDGCNEARWFSLTTRNVNDGQIQGVINKLWGVDTNYKSVSKFHVFHDSTNFYGSTGNARGQAVVNISNAAFPILMARNDKNYWLAFGEKRAWDKNELAYITEAPSIVRPENVTRETASFNLPFISLGQVGDGKLMVIGNPHYNSILRCPNGYSWNGGVNKDGQCTLNSDPDDMKNFMENVLRYLSNDRWLPDAKSSMTVGTNLETVYFKKHGQVLGNSAPFAFHKDFTGITVKPMTSYGNLNPDEVPLLILNGFEYVTQWGSDPYSIPLRADTSKPKLTQQDVTDLIAYMNKGGSVLIMENVMSNLKEESASGFVRLLDAAGLSMALNKSVVNNDPQGYPDRVRQRRSTPIWVYERYPAVDGKPPYTIDDTTKEVIWKYQQENKPDDKPKLEVASWQEEVEGKQVTQFAFIDEADHKTPESLAAAKQRILDAFPGLEVCKDSDYHYEVNCLEYRPGTDVPVTGGMYVPQYTQLDLSADTAKAMLQAADLGTNIQRLYQHELYFRTNGRQGERLNSVDLERLYQNMSVWLWNETKYRYEEGKEDELGFKTFTEFLNCYTNNAYVGTQCSAELKKSLIDNKMIYGEESSKAGMMNPSYPLNYMEKPLTRLMLGRSWWDLNIKVDVEKYPGVVNTNGETVTQNINLYSAPTKWFAGNMQSTGLWAPAQQEVSIESKSTVPVTVTVALADDLTGREKHEVSLNRPPRVTKTYDLKANDKVTFKVPYGGLIYIKGDSKEVQSADFTFTGVVKAPFYKDGKWQHDLNSPAPLGELESASFVYTTPKKNLNASNYTGGLEQFANDLDTFASSMNDFYGRDSEDGKHRMFTYKNLPGHKHRFANDVQISIGDAHSGYPVMNSSFSPNSTTLPTTPLNDWLIWHEVGHNAAETPLTVPGATEVANNVLALYMQDRYLGKMNRVADDITVAPEYLEESNGQAWARGGAGDRLLMYAQLKEWAEKNFDIKKWYPDGTPLPEFYSEREGMKGWNLFQLMHRKARGDEVSNDKFGGKNYCAESNGNAADTLMLCASWVAQTDLSEFFKKWNPGANAYQLPGASEMSFEGGVSQSAYNTLASLDLPKPEQGPETINQVTEHKMSAE
[1]
  glycan array binding signal (z-score): 0.586
[2]
  glycan array binding signal (z-score): 1.26
[3]
  glycan array binding signal (z-score): 0.649
[4]
  glycan array binding signal (z-score): 1.33
[5]
  glycan array binding signal (z-score): 0.985
[6]
  glycan array binding signal (z-score): 0.898
[7]
  glycan array binding signal (z-score): -0.305
[8]
  glycan array binding signal (z-score): -0.832
[9]
  glycan array binding signal (z-score): -0.767
[10]
  glycan array binding signal (z-score): 0.017
[11]
  glycan array binding signal (z-score): -0.237
[12]
  glycan array binding signal (z-score): -0.231
[13]
  glycan array binding signal (z-score): 1.22
[14]
  glycan array binding signal (z-score): -1.04
[15]
  glycan array binding signal (z-score): -1.35
[16]
  glycan array binding signal (z-score): 0.058
[17]
  glycan array binding signal (z-score): 0.508
[18]
  glycan array binding signal (z-score): -0.928
[19]
  glycan array binding signal (z-score): -1.78
[20]
  glycan array binding signal (z-score): -0.348
[21]
  glycan array binding signal (z-score): 0.497
[22]
  glycan array binding signal (z-score): 0.915
[23]
  glycan array binding signal (z-score): 0.217
[24]
  glycan array binding signal (z-score): 0.059
[25]
  glycan array binding signal (z-score): -1.4
[26]
  glycan array binding signal (z-score): 0.082
Neu5Ac(a2-6)GalNAc
  glycan array binding signal (z-score): 0.205
[27]
  glycan array binding signal (z-score): -1.29
[28]
  glycan array binding signal (z-score): -0.547
[29]
  glycan array binding signal (z-score): -1.03
[30]
  glycan array binding signal (z-score): -0.586
